{
  "sequences": {"note": "The chains behind the UniProt entries cited, without tags or fusion partners.", "UniProt Q9FFT4": "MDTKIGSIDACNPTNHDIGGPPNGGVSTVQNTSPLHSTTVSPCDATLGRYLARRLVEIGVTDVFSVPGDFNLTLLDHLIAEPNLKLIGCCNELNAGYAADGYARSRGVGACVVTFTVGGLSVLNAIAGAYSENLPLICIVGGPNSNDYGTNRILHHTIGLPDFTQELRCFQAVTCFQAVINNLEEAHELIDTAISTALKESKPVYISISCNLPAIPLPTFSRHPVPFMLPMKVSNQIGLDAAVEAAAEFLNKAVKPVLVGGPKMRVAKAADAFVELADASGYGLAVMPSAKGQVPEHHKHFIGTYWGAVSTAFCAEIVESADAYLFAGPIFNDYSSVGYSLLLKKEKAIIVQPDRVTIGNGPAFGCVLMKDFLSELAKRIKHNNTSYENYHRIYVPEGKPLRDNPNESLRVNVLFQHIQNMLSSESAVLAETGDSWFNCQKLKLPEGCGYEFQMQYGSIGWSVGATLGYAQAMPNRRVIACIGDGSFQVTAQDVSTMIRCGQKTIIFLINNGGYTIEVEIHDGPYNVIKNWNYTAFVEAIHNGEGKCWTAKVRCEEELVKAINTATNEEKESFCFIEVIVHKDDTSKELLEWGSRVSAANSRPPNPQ"},
  "source": "paper doi:10.1101/2020.09.22.307595",
  "target": "cLUC-AtPDC2 (Arabidopsis thaliana) (UniProt Q9FFT4)",
  "experiment": "split reporter",
  "note": "These are yes or no findings as the source states them, for the method shown. Binding seen in cells or lysates may run through a third protein. Some binding calls cover weakened binding; strength is not graded here.",
  "data": [
    {"substance": "cLUC-AtPDC2 (from UniProt Q9FFT4 1-607) (enzyme)", "values": [
      {"measurement": "binding", "result": "binds"}
    ]}
  ]
}
